# Assay results as given in the supplement of paper PMC12067093, “Discovery and optimisation of a covalent ligand for TRIM25 and its application to targeted protein ubiquitination” (Chemical Science, 2025).
# Sequences of proteins named here, by UniProt entry; tags and fusion partners are left off. A change or cut given only in a name is not applied to a line headed by its entry.
# UniProt O43172: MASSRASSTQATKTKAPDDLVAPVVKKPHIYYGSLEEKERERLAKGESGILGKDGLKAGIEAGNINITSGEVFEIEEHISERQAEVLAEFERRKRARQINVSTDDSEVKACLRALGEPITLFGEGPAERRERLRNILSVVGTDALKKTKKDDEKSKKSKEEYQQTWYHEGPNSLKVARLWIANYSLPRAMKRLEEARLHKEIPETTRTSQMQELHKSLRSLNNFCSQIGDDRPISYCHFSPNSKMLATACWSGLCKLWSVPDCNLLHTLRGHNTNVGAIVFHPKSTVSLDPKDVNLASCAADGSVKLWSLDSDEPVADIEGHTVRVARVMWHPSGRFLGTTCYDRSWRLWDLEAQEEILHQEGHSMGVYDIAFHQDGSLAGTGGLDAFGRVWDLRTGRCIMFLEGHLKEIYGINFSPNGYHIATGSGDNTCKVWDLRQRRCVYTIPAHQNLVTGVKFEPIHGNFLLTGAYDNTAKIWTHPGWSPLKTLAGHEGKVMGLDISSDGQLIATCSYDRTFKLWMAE
# UniProt O14744, whole entry, looked up: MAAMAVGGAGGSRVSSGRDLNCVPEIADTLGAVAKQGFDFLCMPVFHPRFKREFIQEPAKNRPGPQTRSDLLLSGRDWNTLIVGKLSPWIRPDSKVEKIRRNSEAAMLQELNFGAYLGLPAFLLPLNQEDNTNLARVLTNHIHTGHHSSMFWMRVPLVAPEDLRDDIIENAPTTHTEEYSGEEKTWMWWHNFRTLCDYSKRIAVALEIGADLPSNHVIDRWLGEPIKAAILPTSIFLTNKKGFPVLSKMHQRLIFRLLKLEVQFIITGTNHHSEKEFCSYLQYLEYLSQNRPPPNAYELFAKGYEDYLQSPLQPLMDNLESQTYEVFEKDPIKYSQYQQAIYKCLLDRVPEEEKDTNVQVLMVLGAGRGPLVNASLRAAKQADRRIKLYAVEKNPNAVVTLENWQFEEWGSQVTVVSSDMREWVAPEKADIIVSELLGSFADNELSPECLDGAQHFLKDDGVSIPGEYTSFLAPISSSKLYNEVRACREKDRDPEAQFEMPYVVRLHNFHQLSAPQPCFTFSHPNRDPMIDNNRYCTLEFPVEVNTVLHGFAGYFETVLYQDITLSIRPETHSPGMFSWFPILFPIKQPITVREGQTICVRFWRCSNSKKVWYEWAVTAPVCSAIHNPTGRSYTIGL
# UniProt Q86XN7: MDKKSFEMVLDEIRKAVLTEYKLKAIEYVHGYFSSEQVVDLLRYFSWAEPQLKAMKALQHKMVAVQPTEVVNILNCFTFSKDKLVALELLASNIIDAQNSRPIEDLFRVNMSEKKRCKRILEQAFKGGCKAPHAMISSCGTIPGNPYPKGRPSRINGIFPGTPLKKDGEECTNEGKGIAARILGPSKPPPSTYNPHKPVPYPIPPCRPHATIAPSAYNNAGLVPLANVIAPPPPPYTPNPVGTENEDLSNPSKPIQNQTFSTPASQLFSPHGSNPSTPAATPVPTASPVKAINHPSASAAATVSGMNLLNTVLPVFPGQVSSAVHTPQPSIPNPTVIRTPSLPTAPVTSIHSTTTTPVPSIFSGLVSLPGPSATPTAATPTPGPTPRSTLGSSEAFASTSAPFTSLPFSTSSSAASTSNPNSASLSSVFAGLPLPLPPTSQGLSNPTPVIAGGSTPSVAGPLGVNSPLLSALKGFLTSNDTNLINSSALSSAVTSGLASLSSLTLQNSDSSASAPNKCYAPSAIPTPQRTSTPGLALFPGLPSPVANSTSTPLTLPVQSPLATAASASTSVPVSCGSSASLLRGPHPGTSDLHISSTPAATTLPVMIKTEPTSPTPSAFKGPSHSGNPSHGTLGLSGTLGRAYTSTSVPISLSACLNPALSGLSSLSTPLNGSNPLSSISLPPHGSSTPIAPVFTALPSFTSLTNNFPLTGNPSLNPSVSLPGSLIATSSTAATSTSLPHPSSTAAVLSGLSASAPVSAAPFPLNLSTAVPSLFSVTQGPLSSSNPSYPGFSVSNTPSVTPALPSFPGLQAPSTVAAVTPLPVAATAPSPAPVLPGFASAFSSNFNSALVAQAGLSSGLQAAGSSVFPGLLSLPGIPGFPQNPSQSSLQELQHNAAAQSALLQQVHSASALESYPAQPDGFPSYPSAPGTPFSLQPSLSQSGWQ
# UniProt Q9Y520: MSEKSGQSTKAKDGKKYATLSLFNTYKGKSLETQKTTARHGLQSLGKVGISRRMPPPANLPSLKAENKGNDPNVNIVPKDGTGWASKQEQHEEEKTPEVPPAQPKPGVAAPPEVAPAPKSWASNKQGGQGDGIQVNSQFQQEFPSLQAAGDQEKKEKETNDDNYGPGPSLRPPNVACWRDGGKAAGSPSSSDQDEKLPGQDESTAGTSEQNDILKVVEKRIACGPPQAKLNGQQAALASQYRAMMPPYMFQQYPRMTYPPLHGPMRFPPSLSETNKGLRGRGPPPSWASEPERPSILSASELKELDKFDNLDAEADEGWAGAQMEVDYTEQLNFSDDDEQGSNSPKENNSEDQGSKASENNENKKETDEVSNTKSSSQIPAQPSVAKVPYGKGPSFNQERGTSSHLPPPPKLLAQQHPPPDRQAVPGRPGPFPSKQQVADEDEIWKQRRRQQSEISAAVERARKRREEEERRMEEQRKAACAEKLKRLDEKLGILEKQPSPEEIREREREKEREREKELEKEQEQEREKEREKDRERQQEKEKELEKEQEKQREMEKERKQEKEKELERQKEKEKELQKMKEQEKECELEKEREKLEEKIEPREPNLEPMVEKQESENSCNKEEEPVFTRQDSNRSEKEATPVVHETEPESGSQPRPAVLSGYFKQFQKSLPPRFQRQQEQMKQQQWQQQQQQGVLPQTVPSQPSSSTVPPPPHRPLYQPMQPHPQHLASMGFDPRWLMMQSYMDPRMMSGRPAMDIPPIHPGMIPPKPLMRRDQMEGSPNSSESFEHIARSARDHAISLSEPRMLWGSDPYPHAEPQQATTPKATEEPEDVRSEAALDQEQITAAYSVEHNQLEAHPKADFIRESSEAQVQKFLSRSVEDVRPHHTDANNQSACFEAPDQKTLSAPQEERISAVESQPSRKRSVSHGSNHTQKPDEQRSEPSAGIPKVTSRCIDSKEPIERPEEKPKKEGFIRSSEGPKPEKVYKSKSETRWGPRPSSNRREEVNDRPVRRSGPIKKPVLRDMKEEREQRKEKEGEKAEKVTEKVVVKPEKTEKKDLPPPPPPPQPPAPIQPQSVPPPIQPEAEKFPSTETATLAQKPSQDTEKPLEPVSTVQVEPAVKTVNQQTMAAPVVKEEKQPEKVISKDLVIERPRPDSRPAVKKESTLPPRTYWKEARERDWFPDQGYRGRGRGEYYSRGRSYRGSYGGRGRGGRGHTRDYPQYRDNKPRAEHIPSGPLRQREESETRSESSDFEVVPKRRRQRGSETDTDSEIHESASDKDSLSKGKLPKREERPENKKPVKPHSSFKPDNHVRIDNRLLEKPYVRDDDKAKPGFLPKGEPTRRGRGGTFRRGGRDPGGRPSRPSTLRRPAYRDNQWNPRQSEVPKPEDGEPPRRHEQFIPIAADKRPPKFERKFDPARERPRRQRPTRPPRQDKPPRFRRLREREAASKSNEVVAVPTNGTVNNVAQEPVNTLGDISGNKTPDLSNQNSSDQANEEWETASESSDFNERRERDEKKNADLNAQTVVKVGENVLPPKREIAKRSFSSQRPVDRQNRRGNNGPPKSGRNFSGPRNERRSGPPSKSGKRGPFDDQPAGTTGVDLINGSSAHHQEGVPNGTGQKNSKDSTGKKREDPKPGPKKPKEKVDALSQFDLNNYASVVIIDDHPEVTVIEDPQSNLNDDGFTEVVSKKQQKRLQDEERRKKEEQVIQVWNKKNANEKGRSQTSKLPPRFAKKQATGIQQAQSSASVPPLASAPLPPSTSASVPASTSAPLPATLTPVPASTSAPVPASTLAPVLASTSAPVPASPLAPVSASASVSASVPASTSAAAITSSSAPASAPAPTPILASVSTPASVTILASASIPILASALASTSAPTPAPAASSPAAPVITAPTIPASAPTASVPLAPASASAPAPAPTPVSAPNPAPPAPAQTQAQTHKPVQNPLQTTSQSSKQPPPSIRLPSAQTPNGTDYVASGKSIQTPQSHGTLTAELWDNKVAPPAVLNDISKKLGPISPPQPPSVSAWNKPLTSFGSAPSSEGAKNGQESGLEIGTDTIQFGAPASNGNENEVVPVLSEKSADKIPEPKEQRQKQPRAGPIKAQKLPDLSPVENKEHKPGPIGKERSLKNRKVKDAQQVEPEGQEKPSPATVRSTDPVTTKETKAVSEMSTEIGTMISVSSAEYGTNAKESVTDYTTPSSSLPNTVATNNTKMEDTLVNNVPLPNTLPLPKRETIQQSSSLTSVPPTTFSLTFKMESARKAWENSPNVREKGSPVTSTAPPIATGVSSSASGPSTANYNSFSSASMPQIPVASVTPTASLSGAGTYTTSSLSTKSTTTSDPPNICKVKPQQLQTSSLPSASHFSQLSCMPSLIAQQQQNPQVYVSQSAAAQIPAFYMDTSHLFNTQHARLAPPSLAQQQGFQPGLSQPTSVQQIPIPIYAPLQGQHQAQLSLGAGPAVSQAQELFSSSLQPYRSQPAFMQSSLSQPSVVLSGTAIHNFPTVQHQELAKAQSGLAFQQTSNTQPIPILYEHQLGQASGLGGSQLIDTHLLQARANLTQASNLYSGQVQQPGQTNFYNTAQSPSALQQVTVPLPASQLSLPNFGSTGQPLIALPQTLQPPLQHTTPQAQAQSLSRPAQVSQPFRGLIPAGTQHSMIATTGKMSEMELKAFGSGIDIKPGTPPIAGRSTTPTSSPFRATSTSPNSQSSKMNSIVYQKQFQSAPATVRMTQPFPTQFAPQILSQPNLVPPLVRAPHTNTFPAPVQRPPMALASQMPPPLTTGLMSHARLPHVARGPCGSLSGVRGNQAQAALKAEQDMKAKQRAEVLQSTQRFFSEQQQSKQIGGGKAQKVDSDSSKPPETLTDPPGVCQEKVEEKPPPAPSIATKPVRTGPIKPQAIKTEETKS
# UniProt P60891: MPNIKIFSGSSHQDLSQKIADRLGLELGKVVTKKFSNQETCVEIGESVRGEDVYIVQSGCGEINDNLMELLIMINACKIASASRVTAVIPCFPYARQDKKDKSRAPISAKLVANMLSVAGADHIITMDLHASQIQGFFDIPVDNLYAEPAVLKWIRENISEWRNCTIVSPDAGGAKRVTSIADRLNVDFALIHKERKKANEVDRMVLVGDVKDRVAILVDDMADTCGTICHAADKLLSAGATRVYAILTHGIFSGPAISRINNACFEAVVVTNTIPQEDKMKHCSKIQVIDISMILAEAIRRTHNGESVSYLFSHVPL
# UniProt Q9NVM4: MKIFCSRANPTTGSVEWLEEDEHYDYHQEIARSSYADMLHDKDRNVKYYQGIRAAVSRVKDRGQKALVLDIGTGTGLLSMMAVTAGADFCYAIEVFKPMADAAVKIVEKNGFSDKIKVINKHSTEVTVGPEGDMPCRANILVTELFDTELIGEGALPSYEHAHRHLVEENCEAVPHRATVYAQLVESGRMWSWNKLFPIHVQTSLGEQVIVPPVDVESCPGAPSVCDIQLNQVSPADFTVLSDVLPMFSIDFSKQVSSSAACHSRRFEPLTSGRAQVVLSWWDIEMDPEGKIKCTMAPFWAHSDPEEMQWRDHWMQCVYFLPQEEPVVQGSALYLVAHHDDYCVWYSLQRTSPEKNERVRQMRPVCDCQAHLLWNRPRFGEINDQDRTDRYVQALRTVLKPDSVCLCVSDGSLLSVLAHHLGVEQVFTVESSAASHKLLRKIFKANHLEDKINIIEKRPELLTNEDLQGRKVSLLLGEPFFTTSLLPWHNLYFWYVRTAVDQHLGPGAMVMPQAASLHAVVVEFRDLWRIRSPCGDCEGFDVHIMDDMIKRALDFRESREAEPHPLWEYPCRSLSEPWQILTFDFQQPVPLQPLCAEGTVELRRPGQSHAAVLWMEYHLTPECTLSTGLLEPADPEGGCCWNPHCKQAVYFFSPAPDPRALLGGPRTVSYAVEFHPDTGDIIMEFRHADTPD
# UniProt P11908: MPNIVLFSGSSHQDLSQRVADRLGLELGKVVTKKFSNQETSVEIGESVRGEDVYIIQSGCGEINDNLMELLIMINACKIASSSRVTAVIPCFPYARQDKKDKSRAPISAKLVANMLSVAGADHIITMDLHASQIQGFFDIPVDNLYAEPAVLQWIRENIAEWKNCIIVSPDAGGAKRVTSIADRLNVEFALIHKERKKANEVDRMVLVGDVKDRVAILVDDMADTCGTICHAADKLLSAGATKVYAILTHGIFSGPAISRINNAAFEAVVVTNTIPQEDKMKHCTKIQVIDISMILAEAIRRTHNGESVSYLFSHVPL
# UniProt P13727: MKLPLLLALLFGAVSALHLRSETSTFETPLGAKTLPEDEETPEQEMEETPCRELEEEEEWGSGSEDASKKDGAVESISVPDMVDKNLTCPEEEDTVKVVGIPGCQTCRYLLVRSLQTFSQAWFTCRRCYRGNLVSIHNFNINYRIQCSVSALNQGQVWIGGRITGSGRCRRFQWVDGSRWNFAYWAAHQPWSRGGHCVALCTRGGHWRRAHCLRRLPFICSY
# The other results are listed elsewhere or left out.
# Compound: CC1Cc2ccccc2N1C(=O)C1CCCN(C1)C(=O)CCl (mixture of isomers) [TRIM25 ligand 11 (diastereomer mixture)]
# Test: probe-labelled cysteine peptide fold change vs DMSO (competition) (log2 fold change); higher = less target engagement (more negative = stronger competition)
# Settings: 10 µM; THP-1; incubation time: 4 h
# 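Also: competitive chemoproteomic profiling in live THP-1 cells with an iodoacetamide desthiobiotin (IA-DTB) probe, comparing probe-labelled peptide intensities in compound-treated cells against DMSO-treated controls.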
row,Target,probe-labelled cysteine peptide fold change
1,PRR14L_Q5THK1_1730_SSSSDCTTESSR (UniProt Q5THK1),0.161
2,PRIM1_P49642_170_GVHCWVCDESVR (UniProt P49642),0.28
3,PRKCB_P05771_53_QPTFCSHCTDFIWGFGK (UniProt P05771),0.106
4,PRKCA_P17252_132+135_CDTCDMNVHK (UniProt P17252),-0.0888
5,PRKDC_P78527_1507_QCLPSLDLSCK (UniProt P78527),0.045
6,PRMT1_Q99873_360+364_GQLCELSCSTDYR (UniProt Q99873),0.0885
7,PRUNE1_Q86TP1_313_QLAIFCPHVALQTTICEVLER (UniProt Q86TP1),-0.101
8,PRPF4_O43172_441_CVYTIPAHQNLVTGVK (UniProt O43172),0.114
9,PRMT5_O14744_42_QGFDFLCMPVFHPR (UniProt O14744),-0.12
10,PREX1_Q8TCU6_52_LCVLNEILGTER (UniProt Q8TCU6),0.189
11,PROSER1_Q86XN7_139_APHAMISSCGTIPGNPYPK (UniProt Q86XN7),-0.216
12,PRKCB_P05771_151_CVMNVPSLCGTDHTER (UniProt P05771),0.0617
13,PRKDC_P78527_2342_NILEESLCELVAK (UniProt P78527),0.125
14,PREX1_Q8TCU6_867_CHVLEK (UniProt Q8TCU6),0.00857
15,PRRC2C_Q9Y520_620_QESENSCNKEEEPVFTR (UniProt Q9Y520),0.0183
16,PRIM1_P49642_354_VDQFDPFTVPTISFICR (UniProt P49642),-0.16
17,PRPF8_Q6P2Q9_547_FGNAFHLCR (UniProt Q6P2Q9),0.191
18,PRPF8_Q6P2Q9_2216+2223_TIIITCSFTPGSCTLTAYK (UniProt Q6P2Q9),-0.318

row,Target,probe-labelled cysteine peptide fold change
1,PRMT3_O60678_264_VVLDVGCGTGILSMFAAK (UniProt O60678),0.00438
2,PRKDC_P78527_1399_VLVQTLCEPASIGFNIGDVQVMAHLPDVCVNLMK (UniProt P78527),-0.19
3,PRKDC_P78527_1364_KDLCNTHLMR (UniProt P78527),-0.188
4,PRKCB_P05771_67_QGFQCQVCCFVVHK (UniProt P05771),0.153
5,PRPS1_P60891_41_FSNQETCVEIGESVR (UniProt P60891),0.162
6,PRKDC_P78527_4061_LAGANPAVITCDELLLGHEK (UniProt P78527),-0.0993
7,PRKDC_P78527_1364_DLCNTHLMR (UniProt P78527),0.157
8,PRKDC_P78527_2435_VCLDIIYK (UniProt P78527),-0.05
9,PRMT7_Q9NVM4_368_QMRPVCDCQAHLLWNRPR (UniProt Q9NVM4),-0.163
10,PRPS1_P60891_41_KFSNQETCVEIGESVR (UniProt P60891),0.239
11,PRKDC_P78527_630_DFSAFINLVEFCR (UniProt P78527),0.0072
12,PRPS2_P11908_230_DRVAILVDDMADTCGTICHAADK (UniProt P11908),-0.0227
13,PRG2_P13727_201_GGHCVALCTR (UniProt P13727),0.143
14,PRPF19_Q9UMS4_114_QELSHALYQHDAACR (UniProt Q9UMS4),-0.00523
15,PRKDC_P78527_25_CGAALAGHQLIR (UniProt P78527),0.318
16,PRPS2_P11908_230_VAILVDDMADTCGTICHAADK (UniProt P11908),0.0135
17,PRKDC_P78527_1176+1183_WLLAHCGRPQTECR (UniProt P78527),-0.307
18,PRKCD_Q05655_261+264_CEDCGMNVHHK (UniProt Q05655),-0.105

# Same assay, conditions: 50 µM; THP-1; incubation time: 4 h
row,Target,probe-labelled cysteine peptide fold change
1,PRR14L_Q5THK1_1730_SSSSDCTTESSR (UniProt Q5THK1),-0.155
2,PRIM1_P49642_170_GVHCWVCDESVR (UniProt P49642),0.472
3,PRKCB_P05771_53_QPTFCSHCTDFIWGFGK (UniProt P05771),0.105
4,PRKCA_P17252_132+135_CDTCDMNVHK (UniProt P17252),-0.162
5,PRKDC_P78527_1507_QCLPSLDLSCK (UniProt P78527),0.0977
6,PRMT1_Q99873_360+364_GQLCELSCSTDYR (UniProt Q99873),0.191
7,PRUNE1_Q86TP1_313_QLAIFCPHVALQTTICEVLER (UniProt Q86TP1),-0.225
8,PRPF4_O43172_441_CVYTIPAHQNLVTGVK (UniProt O43172),0.00531
9,PRMT5_O14744_42_QGFDFLCMPVFHPR (UniProt O14744),-0.133
10,PREX1_Q8TCU6_52_LCVLNEILGTER (UniProt Q8TCU6),0.308
11,PROSER1_Q86XN7_139_APHAMISSCGTIPGNPYPK (UniProt Q86XN7),-0.297
12,PRKCB_P05771_151_CVMNVPSLCGTDHTER (UniProt P05771),-0.156
13,PRKDC_P78527_2342_NILEESLCELVAK (UniProt P78527),0.107
14,PREX1_Q8TCU6_867_CHVLEK (UniProt Q8TCU6),0.183
15,PRRC2C_Q9Y520_620_QESENSCNKEEEPVFTR (UniProt Q9Y520),-0.411
16,PRIM1_P49642_354_VDQFDPFTVPTISFICR (UniProt P49642),-0.163
17,PRPF8_Q6P2Q9_547_FGNAFHLCR (UniProt Q6P2Q9),0.0782
18,PRPF8_Q6P2Q9_2216+2223_TIIITCSFTPGSCTLTAYK (UniProt Q6P2Q9),-0.2

row,Target,probe-labelled cysteine peptide fold change
1,PRMT3_O60678_264_VVLDVGCGTGILSMFAAK (UniProt O60678),-0.095
2,PRKDC_P78527_1399_VLVQTLCEPASIGFNIGDVQVMAHLPDVCVNLMK (UniProt P78527),-0.257
3,PRKDC_P78527_1364_KDLCNTHLMR (UniProt P78527),-0.0544
4,PRKCB_P05771_67_QGFQCQVCCFVVHK (UniProt P05771),0.0649
5,PRPS1_P60891_41_FSNQETCVEIGESVR (UniProt P60891),-0.00081
6,PRKDC_P78527_4061_LAGANPAVITCDELLLGHEK (UniProt P78527),-0.0896
7,PRKDC_P78527_1364_DLCNTHLMR (UniProt P78527),0.159
8,PRKDC_P78527_2435_VCLDIIYK (UniProt P78527),0.00192
9,PRMT7_Q9NVM4_368_QMRPVCDCQAHLLWNRPR (UniProt Q9NVM4),-0.0321
10,PRPS1_P60891_41_KFSNQETCVEIGESVR (UniProt P60891),0.134
11,PRKDC_P78527_630_DFSAFINLVEFCR (UniProt P78527),0.0448
12,PRPS2_P11908_230_DRVAILVDDMADTCGTICHAADK (UniProt P11908),0.215
13,PRG2_P13727_201_GGHCVALCTR (UniProt P13727),0.119
14,PRPF19_Q9UMS4_114_QELSHALYQHDAACR (UniProt Q9UMS4),0.0622
15,PRKDC_P78527_25_CGAALAGHQLIR (UniProt P78527),0.423
16,PRPS2_P11908_230_VAILVDDMADTCGTICHAADK (UniProt P11908),0.175
17,PRKDC_P78527_1176+1183_WLLAHCGRPQTECR (UniProt P78527),-0.0718
18,PRKCD_Q05655_261+264_CEDCGMNVHHK (UniProt Q05655),-0.251
